Experimental data taken from PMC11374535.

Biological target: T1, SlMYB86 (Solanum lycopersicum (tomato)) (UniProt A0A3Q7F5S7)
T1 sequence (looked up): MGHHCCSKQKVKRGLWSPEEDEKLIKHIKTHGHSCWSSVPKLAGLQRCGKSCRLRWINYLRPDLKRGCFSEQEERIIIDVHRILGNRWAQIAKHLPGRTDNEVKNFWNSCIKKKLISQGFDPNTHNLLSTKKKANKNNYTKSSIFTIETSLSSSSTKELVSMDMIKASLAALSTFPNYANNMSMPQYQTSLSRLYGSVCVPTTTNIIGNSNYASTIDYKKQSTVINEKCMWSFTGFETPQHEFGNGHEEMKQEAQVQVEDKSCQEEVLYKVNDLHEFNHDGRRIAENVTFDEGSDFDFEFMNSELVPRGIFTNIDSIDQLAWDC
Assay: EMSA
Settings: LightShift Chemiluminescent EMSA Kit (Thermo Fisher) guidelines; pH and temperature not stated; recombinant protein; residues 1-324; protein details: His (pET28a); label: biotin (labelled probe, unlabelled as competitor)

Row | Sequence | binding result
1 | CAAATGATTGAGATTTAACTGGATTGTGATGCATTG (double strand) [SlTrxh promoter C2 probe] | binds
2 | TTCTCAATGAAGAGTCAACTGATCCTTTGGTAATAC (double strand) [SlTrxh promoter C1 probe] | binds

For at least one entry, the source does not settle the construct or the ends of the probe. At least one verdict was read from the data and is not stated in words by the source. Tags and fusion partners may be left off the protein sequences shown.
